From patent US20100130432A1, “Non-Natural Amino Acids and Neurotensin Analogues Thereof” (priority 2005, published 2010) come the findings set out here.

The test concerns rats. As to the kind of experiment: Induced hypothermia (rectal temperature) after IP or oral administration. The note with it: Table 9.

Consider `CC(C)C[C@H](NC(=O)[C@@H](NC(=O)[C@H](Cc1ccc(O)cc1)NC(=O)[C@@H]1CCCN1C(=O)[C@H](CCCNC(=N)N)NC(=O)[C@H](CCCCCN)N=[N+]=[N-])C(C)(C)C)C(=O)O` [ABS13, N3-L-homolysine-Arg-Pro-Tyr-tertLeu-Leu-COOH], for which, for the setting “IP 5 mg/kg”, the “IP Dose tmax” value stood at 2.5 h and the “IP Dose Δ in BT (° C.)” value was −4.26 °C. Also, where the note is “oral 20 mg/kg”, the “Oral Dose tmax” value came out at 1.5 h and the “Oral Dose Δ in BT (° C.)” value was −1.66 °C.
